The values below come from US20220395522A1, “Methods of Use of Glucosamine for Increasing Nitrogen Retention” (TSI Bioproducts (Xuzhou) Co., Ltd., priority 2021, published 2022).

The nature of this data set: Self-reported food intake and physical activity logs in cross-over study. The format is in vivo, human. Conditions: GLU condition, Post 21 days, 3 x 1,000 mg/day oral; mean ± SD.

The compound `Cl.N[C@H]1C(O)O[C@H](CO)[C@@H](O)[C@@H]1O` (some centres unmarked) [GLU, glucosamine hydrochloride] had a Carbohydrate intake of 189 ± 36 g/day and a Protein intake of 123 ± 46 g/day.
